These are yes or no findings as the source states them, for the method shown. In cells and extracts the contact can be indirect. Some results given as binding are weak or reduced against the parent protein; the word gives no strength.
Molecular target: GRB2 (human (endogenous in HUVEC)), P62993
Experiment: co-IP; endogenous GRB2 immunoprecipitated with anti-Grb2 antibody (20 µg/ml) and Protein G Sepharose from lysates of HUVECs transduced with Ad-shScr or Ad-shLrrc8a, serum starved, with or without insulin; lysis buffer 150 mM NaCl, 20 mM HEPES, 1% NP-40, 5 mM EDTA, pH 7.5; overnight at 4°C; washed three times with RIPA buffer; immunoblot
Settings: remark: other sources report otherwise

B1: caveolin-1 (Cav1), Q03135 1-178 (protein)
chain: MSGGKYVDSEGHLYTVPIREQGNIYKPNNKAMADELSEKQVYDAHTKEIDLVNRDPKHLNDDVVKIDFEDVIAEPEGTHSFDGIWKASFTTFTVTKYWFYRLLSALFGIPMALIWGIYFAILSFLHIWAVVPCIKSFLIEIQCISRVYSIYVHTVCDPLFEAVGKIFSNVRINLQKEI
binding: binds

From PMC7997661
